Article doi:10.1101/559146
Results are given in words; binding and its absence hold for the method and conditions named. In cells and extracts the contact can be indirect. A result given as binding can be weak or reduced; the word gives no strength. Where a sequence is shown, tags or fusion partners need not be part of it.

Protein sequences, listed by entry. Tags and fused reporters are not part of them. Lines headed by an entry give the natural chain unless they say otherwise; changes in a name come on top.
UniProt P25443: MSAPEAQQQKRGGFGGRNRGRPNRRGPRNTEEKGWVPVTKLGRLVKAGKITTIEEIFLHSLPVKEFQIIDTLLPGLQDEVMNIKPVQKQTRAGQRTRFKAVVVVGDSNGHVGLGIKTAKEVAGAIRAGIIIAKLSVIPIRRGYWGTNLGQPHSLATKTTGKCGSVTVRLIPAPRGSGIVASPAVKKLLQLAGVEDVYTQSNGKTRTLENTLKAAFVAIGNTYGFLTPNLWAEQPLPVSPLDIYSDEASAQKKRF

Biological target: T1, Tsr4-TEV-13myc (S. cerevisiae) (UniProt P25040)
T1 sequence: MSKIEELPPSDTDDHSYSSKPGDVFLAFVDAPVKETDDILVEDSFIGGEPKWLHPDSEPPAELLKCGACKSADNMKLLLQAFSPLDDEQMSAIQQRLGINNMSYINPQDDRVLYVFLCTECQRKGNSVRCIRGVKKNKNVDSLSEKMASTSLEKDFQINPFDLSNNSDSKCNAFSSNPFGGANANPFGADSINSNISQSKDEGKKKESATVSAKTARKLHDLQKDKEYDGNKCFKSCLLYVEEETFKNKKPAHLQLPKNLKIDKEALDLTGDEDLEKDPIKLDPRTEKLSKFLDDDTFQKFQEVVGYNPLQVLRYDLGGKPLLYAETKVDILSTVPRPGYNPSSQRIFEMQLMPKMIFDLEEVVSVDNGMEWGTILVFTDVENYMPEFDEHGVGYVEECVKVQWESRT
Assay: co-IP

In the case of “Rps2-GFP fragment lacking the N-terminus (from UniProt P25443) (domain or fragment)”, the binding is reported as “binds”.
